Laboratory results: PubChem BioAssay AID1224826 (NIAID, 2016)
Shown is one part, drawn at random, of about 17,000 deposited reagents. About 1,110 of them (6.6%) were called active. 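Active means lowered or raised reporter signal; replicate intensities are raw and not normalised per plate.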

Purpose: 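Knock-downs that raise or lower Tnf reporter signal after endotoxin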 (primary screen)
Cells: RAW264.7 G9 macrophages from mouse bearing reporters for p65 (GFP) and the Tnf promoter (mCherry)
Reagent: siRNA pool against mouse genes, 100 nM
Time to read-out: 16 h of LPS stimulation, after 2 days of siRNA transfection
Conditions: bacterial lipopolysaccharide (Salmonella minnesota R595), 10 ng/ml
Detection: 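Imaged Tnf reporter mCherry in nuclei, minus background, normalised per plate to the median and expressed as robust z-scores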
Scale: Tnf reporter robust z-score: higher = stronger Tnf promoter reporter signal after LPS; Tnf reporter intensity: higher = stronger Tnf promoter reporter signal
Rule for the call: 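Called active when robust z-score is at most -1.3, matching the median of the Tlr4 knock-down control, or over 3; control wells and wells with under 50 cells never active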
Calls: active = Tnf reporter clearly lowered or raised; inactive = no clear change in Tnf reporter

Target gene,Tnf reporter robust z-score,fewer than 50 cells in well,"Tnf reporter intensity, replicate 1","Tnf reporter intensity, replicate 2",Call
Pno1,,fewer than 50 cells per well; well left out of calls,160,58,inactive
Dad1,-0.75,enough cells in well,187,154,inactive
Clnk,1.63,enough cells in well,234,169,inactive
Htr1f,0.58,enough cells in well,257,354,inactive
Sectm1b,1.23,enough cells in well,141,145,inactive
Stom,-1.04,enough cells in well,187,71.7,inactive
Cmas,-1.04,enough cells in well,101,140,inactive
Ubash3b,1.48,enough cells in well,256,79.6,inactive
Wrap53,-0.75,enough cells in well,163,144,inactive
Epha6,0.7,enough cells in well,315,162,inactive
Nadsyn1,,fewer than 50 cells per well; well left out of calls,137,117,inactive
Cbr2,-0.13,enough cells in well,160,165,inactive
Coa3,-0.41,enough cells in well,152,159,inactive
Pank3,-0.18,enough cells in well,181,133,inactive
Fbxo16,-1.19,enough cells in well,145,84.3,inactive
Echdc2,,fewer than 50 cells per well; well left out of calls,43.6,101,inactive
Ssxb1,,fewer than 50 cells per well; well left out of calls,51.9,91.9,inactive
Hars2,-0.12,enough cells in well,254,145,inactive
Oprl1,-0.43,enough cells in well,281,61.6,inactive
Tmem33,,fewer than 50 cells per well; well left out of calls,212,35.4,inactive
Rsrp1,-1.36,enough cells in well,120,78.3,active
Omd,0.96,enough cells in well,165,204,inactive
Pura,-1.34,enough cells in well,179,106,active
Elk1,-1.38,enough cells in well,110,137,active
Gpbp1,-0.11,enough cells in well,224,73.1,inactive
Or52p1,1.98,enough cells in well,197,154,inactive
Parp11,0.19,enough cells in well,176,168,inactive
Tceal8,,fewer than 50 cells per well; well left out of calls,219,61.7,inactive
Cyp2c29,1.72,enough cells in well,327,242,inactive
Pgap1,0.64,enough cells in well,182,234,inactive
Ctla2a,-1.06,enough cells in well,123,109,inactive
Zfp169,-0.57,enough cells in well,180,64.2,inactive
Jag1,0.64,enough cells in well,291,183,inactive
Git1,-0.75,enough cells in well,161,118,inactive
Ptges,-1.22,enough cells in well,149,109,inactive
St14,-0.46,enough cells in well,266,157,inactive
Pygl,0.61,enough cells in well,328,277,inactive
Wdr1,-0.37,enough cells in well,222,206,inactive
Gal3st1,0.11,enough cells in well,308,206,inactive
Alkbh2,-1.17,enough cells in well,85,101,inactive
Pbx3,-0.95,enough cells in well,177,114,inactive
Pias2,1.01,enough cells in well,356,272,inactive
Ptprz1,0.12,enough cells in well,334,206,inactive

Copied from the list.
Result for Cyp2c29 in “Tnf reporter intensity, replicate 1”: 327
Entry of Sectm1b under “Tnf reporter intensity, replicate 2”: 145
Value for Alkbh2 in “Call”: inactive
For “Call”, Zfp169 is entered as inactive
Gpbp1, Tnf reporter robust z-score → -0.11
Value for Rsrp1 in “fewer than 50 cells in well”: enough cells in well

The list goes on.
Target gene,Tnf reporter robust z-score,fewer than 50 cells in well,"Tnf reporter intensity, replicate 1","Tnf reporter intensity, replicate 2",Call
Tfap2b,-0.8,enough cells in well,172,56.8,inactive
Saraf,,fewer than 50 cells per well; well left out of calls,53.2,20.4,inactive
Spaca4,2.32,enough cells in well,374,110,inactive
Or6c66,,fewer than 50 cells per well; well left out of calls,15.1,92.8,inactive
Or5b122,0.42,enough cells in well,249,108,inactive
Pfn3,1.06,enough cells in well,198,182,inactive
Bdkrb1,0.67,enough cells in well,252,383,inactive
Stk38l,-0.7,enough cells in well,136,109,inactive
Myo6,0.59,enough cells in well,338,228,inactive
Htr1d,-0.13,enough cells in well,208,278,inactive
Aph1c,0.18,enough cells in well,261,86.4,inactive
Zc3h12d,0.02,enough cells in well,213,144,inactive
Traf6,-0.85,enough cells in well,166,160,inactive
Grm2,-1.11,enough cells in well,108,233,inactive
Foxd2,0.13,enough cells in well,315,202,inactive
Slc28a2,-0.82,enough cells in well,59.8,87.6,inactive
Coq5,2.88,enough cells in well,311,367,inactive
Gpc6,-0.36,enough cells in well,193,160,inactive
S100a1,0.48,enough cells in well,416,200,inactive
Otub1,0.6,enough cells in well,335,183,inactive
Klk1b1,0.43,enough cells in well,177,180,inactive
Sirt3,-0.71,enough cells in well,117,75.5,inactive
Pou4f2,-1.66,enough cells in well,92.5,99.1,active
Ccdc202,0.38,enough cells in well,167,75.6,inactive
Ebf2,1.53,enough cells in well,296,166,inactive
Vmn1r28,3.74,enough cells in well,239,226,active
Neu4,-0.88,enough cells in well,169,69.1,inactive
Gfod2,,fewer than 50 cells per well; well left out of calls,112,104,inactive
B230220B15Rik,0.25,enough cells in well,239,126,inactive
Abcf2,0.91,enough cells in well,261,253,inactive
Pml,,fewer than 50 cells per well; well left out of calls,283,66,inactive
Crem,0.16,enough cells in well,184,196,inactive
